By UniProt entry, the sequences of proteins in these tests, tags left out.
UniProt O75164, whole entry: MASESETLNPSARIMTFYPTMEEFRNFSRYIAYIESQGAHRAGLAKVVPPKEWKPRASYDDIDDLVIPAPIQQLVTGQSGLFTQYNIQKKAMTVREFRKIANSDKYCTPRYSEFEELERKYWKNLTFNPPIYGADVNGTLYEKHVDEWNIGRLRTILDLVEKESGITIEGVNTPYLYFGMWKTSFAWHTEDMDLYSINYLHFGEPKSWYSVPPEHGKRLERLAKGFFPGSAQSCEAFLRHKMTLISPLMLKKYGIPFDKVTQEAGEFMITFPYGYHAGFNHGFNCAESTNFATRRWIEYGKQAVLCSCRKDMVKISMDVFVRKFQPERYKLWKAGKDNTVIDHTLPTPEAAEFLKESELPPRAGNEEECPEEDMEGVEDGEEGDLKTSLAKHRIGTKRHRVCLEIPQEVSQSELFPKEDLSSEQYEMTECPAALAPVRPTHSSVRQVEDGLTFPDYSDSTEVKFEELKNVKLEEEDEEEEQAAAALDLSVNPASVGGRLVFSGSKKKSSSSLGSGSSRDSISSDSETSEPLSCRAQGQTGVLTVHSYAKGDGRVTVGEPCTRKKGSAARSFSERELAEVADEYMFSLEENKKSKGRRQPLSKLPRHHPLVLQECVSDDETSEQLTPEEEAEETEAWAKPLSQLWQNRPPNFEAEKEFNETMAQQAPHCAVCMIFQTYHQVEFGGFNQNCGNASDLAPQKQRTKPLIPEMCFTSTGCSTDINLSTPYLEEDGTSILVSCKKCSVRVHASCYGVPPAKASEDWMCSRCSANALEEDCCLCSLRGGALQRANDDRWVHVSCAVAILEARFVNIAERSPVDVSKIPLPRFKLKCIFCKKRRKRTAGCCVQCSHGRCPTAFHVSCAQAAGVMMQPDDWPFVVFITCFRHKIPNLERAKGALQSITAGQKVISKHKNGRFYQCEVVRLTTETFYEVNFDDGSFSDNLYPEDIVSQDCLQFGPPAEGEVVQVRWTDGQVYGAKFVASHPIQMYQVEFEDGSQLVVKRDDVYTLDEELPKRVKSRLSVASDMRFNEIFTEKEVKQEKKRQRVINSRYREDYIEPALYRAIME

Among all 390,000 compounds or so, about 17,000 (4.4%) were called active. Listed are the inconclusive results; actives and inactives stand elsewhere. Calls come from the whole dose curve; as a rule, active = well fitted inhibition curve with a large enough effect; inconclusive = small, poorly fitted or top-dose-only effect; inactive = no such curve, though single readings can be large or run the other way.
Each molecule was assayed against Lysine-specific demethylase 4A (Homo sapiens) (UniProt O75164) (assay: qHTS Assay for Inhibitors of JMJD2A-Tudor Domain). Settings: AlphaScreen JMJD2A-Tudor / H3K4me3 peptide binding.
With `Cc1c([N+](=O)[O-])cc([N+](=O)[O-])c(Br)c1[N+](=O)[O-]` the Potency was inconclusive: 17.8 µM.
With `COc1ccccc1OP(C)(=O)Nc1ccc(C)c(C)c1` (stereo not given) the Potency was inconclusive: 79.4 µM.
In the case of `O=[N+]([O-])c1cc([N+](=O)[O-])c(Nc2ccccn2)c([N+](=O)[O-])c1`, the Potency is reported as inconclusive: 63.1 µM.
`CCc1ccc(OP(C)(=O)N2CCN(c3ccc([N+](=O)[O-])cc3)CC2)cc1` (stereo not given) was tested, and the Potency was inconclusive: 56.2 µM.
With `O=[N+]([O-])c1cc([N+](=O)[O-])c(Nc2nnnn2CCO)c([N+](=O)[O-])c1` the Potency was inconclusive: 89.1 µM.

From PubChem BioAssay AID504339 (National Center for Advancing Translational Sciences (NCATS), 2011)
Note: nearly all actives have a fitted effect of over 50% in size.
Potency is the fitted concentration of half-maximal effect.
